# The list shows a part of the results.
# B1: Clec18Av1 (Homo sapiens), A5D8T8 (protein)
# chain: MLHPETSPGRGHLLAVLLALLGTAWAEVWPPQLQEQAPMAGALNRKESFLLLSLHNRLRSWVQPPAADMRRLDWSDSLAQLAQARAALCGTPTPSLASGLWRTLQVGWNMQLLPAGLVSFVEVVSLWFAEGQRYSHAAGECARNATCTHYTQLVWATSSQLGCGRHLCSAGQAAIEAFVCAYSPRGNWEVNGKTIVPYKKGAWCSLCTASVSGCFKAWDHAGGLCEVPRNPCRMSCQNHGRLNISTCHCHCPPGYTGRYCQVRCSLQCVHGRFREEECSCVCDIGYGGAQCATKVHFPFHTCDLRIDGDCFMVSSEADTYYRARMKCQRKGGVLAQIKSQKVQDILAFYLGRLETTNEVIDSDFETRNFWIGLTYKTAKDSFRWATGEHQAFTSFAFGQPDNHGFGNCVELQASAAFNWNDQRCKTRNRYICQFAQEHISRWGPGS
# How the values were obtained:
# Experiment in all cases: glycan array binding signal (z-score within array); higher = stronger binding
# Conditions in all cases: glycan notation: IUPAC condensed, linker removed
# [1] = molecular target: Gal3S6S(b1-4)GlcNAc
# Procedure, shortened: (§1)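 Glycan array data were curated from 3228 arrays in the Consortium for Functional Glycomics database and kept only where the protein sequence was available. Glycan names were converted to IUPAC-condensed notation, and columns mapping to the same glycan were averaged. The binding signal is a within-array Z-score, averaged across arrays of the same protein sequence at different concentrations or buffers and across linkers. Negative Z-scores can be read as non-binding.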
# [2] = molecular target: Gal3S6S(b1-4)GlcNAc6S
# Procedure, shortened: as §1
# [3] = molecular target: Gal4S(b1-4)GlcNAc
# Procedure, shortened: as §1
# [4] = molecular target: Gal4S6S(b1-4)GlcNAc
# Procedure, shortened: as §1
# [5] = molecular target: Gal6P(b1-4)GlcNAc
# Procedure, shortened: as §1
# [6] = molecular target: Gal6S(b1-3)GlcNAc
# Procedure, shortened: as §1
# [7] = molecular target: Gal6S(b1-3)GlcNAc6S
# Procedure, shortened: as §1
# [8] = molecular target: Gal6S(b1-4)Glc
# Procedure, shortened: as §1
# [9] = molecular target: Gal6S(b1-4)Glc6S
# Procedure, shortened: as §1
# [10] = molecular target: Gal6S(b1-4)GlcNAc
# Procedure, shortened: as §1
# [11] = molecular target: Gal6S(b1-4)GlcNAc6S
# Procedure, shortened: as §1
# [12] = molecular target: GalNAc(a1-3)Gal
# Procedure, shortened: as §1
# [13] = molecular target: GalNAc(a1-3)GalNAc
# Procedure, shortened: as §1
# [14] = molecular target: GalNAc(a1-3)GalNAc(b1-3)Gal(a1-4)Gal(b1-4)Glc
# Procedure, shortened: as §1
# [15] = molecular target: GalNAc(a1-3)GalNAc(b1-3)Gal(a1-4)Gal(b1-4)GlcNAc
# Procedure, shortened: as §1
# [16] = molecular target: GalNAc(b1-3)Gal
# Procedure, shortened: as §1
# [17] = molecular target: GalNAc(b1-3)Gal(a1-4)Gal(b1-4)GlcNAc
# Procedure, shortened: as §1
# [18] = molecular target: GalNAc(b1-3)Gal(a1-4)Gal(b1-4)GlcNAc(b1-3)Gal(b1-4)Glc
# Procedure, shortened: as §1
# [19] = molecular target: GalNAc(b1-3)Gal(a1-6)Gal(b1-4)Glc
# Procedure, shortened: as §1
# [20] = molecular target: GalNAc(b1-3)GalNAc
# Procedure, shortened: as §1
# [21] = molecular target: GalNAc(b1-3)GlcNAc
# Procedure, shortened: as §1
# [22] = molecular target: GalNAc(b1-4)Gal(b1-4)Glc
# Procedure, shortened: as §1
# [23] = molecular target: GalNAc(b1-4)GlcNAc
# Procedure, shortened: as §1
# [24] = molecular target: GalNAc(b1-4)GlcNAc(b1-2)Man
# Procedure, shortened: as §1
# [25] = molecular target: GalNAc(b1-4)GlcNAc(b1-2)Man(a1-3)[GalNAc(b1-4)GlcNAc(b1-2)Man(a1-6)]Man(b1-4)GlcNAc(b1-4)GlcNAc
# Procedure, shortened: as §1
# [26] = molecular target: GalNAc(b1-4)GlcNAc(b1-3)GalNAc(b1-4)GlcNAc
# Procedure, shortened: as §1
# [27] = molecular target: GalNAc(b1-4)GlcNAc6S
# Procedure, shortened: as §1
# [28] = molecular target: GalNAc(b1-6)GalNAc
# Procedure, shortened: as §1
# [29] = molecular target: GalNAc3S(b1-4)GlcNAc
# Procedure, shortened: as §1
# [30] = molecular target: GalNAc3S(b1-4)GlcNAc3S
# Procedure, shortened: as §1
# [31] = molecular target: GalNAc3S(b1-4)[Fuc(a1-3)]GlcNAc
# Procedure, shortened: as §1
# [32] = molecular target: GalNAc4S6S(b1-4)GlcNAc
# Procedure, shortened: as §1
# [33] = molecular target: GalNAc6S(b1-4)GlcNAc
# Procedure, shortened: as §1
# [34] = molecular target: Glc(a1-4)Glc
# Procedure, shortened: as §1
# [35] = molecular target: Glc(a1-4)Glc(a1-4)Glc(a1-4)Glc
# Procedure, shortened: as §1
# [36] = molecular target: Glc(a1-6)Glc(a1-6)Glc
# Procedure, shortened: as §1
# [37] = molecular target: Glc(a1-6)Glc(a1-6)Glc(a1-6)Glc
# Procedure, shortened: as §1
# [38] = molecular target: Glc(b1-4)Glc
# Procedure, shortened: as §1
binder,measurement,setting,value
B1,glycan array binding signal (z-score),[1],-0.757
same,glycan array binding signal (z-score),[2],-0.104
same,glycan array binding signal (z-score),[3],-0.586
same,glycan array binding signal (z-score),[4],-0.824
same,glycan array binding signal (z-score),[5],-0.61
same,glycan array binding signal (z-score),[6],-0.052
same,glycan array binding signal (z-score),[7],-0.393
same,glycan array binding signal (z-score),[8],0.34
same,glycan array binding signal (z-score),[9],1.21
same,glycan array binding signal (z-score),[10],-0.519
same,glycan array binding signal (z-score),[11],-0.233
same,glycan array binding signal (z-score),[12],-0.251
same,glycan array binding signal (z-score),[13],-0.279
same,glycan array binding signal (z-score),[14],0.22
same,glycan array binding signal (z-score),[15],-0.772
same,glycan array binding signal (z-score),[16],1.67
same,glycan array binding signal (z-score),[17],0.686
same,glycan array binding signal (z-score),[18],0.052
same,glycan array binding signal (z-score),[19],0.732
same,glycan array binding signal (z-score),[20],-0.839
same,glycan array binding signal (z-score),[21],2.24
same,glycan array binding signal (z-score),[22],-0.19
same,glycan array binding signal (z-score),[23],-0.281
same,glycan array binding signal (z-score),[24],0.139
same,glycan array binding signal (z-score),[25],1.73
same,glycan array binding signal (z-score),[26],-0.734
same,glycan array binding signal (z-score),[27],2.3
same,glycan array binding signal (z-score),[28],-0.525
same,glycan array binding signal (z-score),[29],-0.866
same,glycan array binding signal (z-score),[30],-0.866
same,glycan array binding signal (z-score),[31],0.645
same,glycan array binding signal (z-score),[32],-0.779
same,glycan array binding signal (z-score),[33],1.98
same,glycan array binding signal (z-score),[34],-0.791
same,glycan array binding signal (z-score),[35],-0.829
same,glycan array binding signal (z-score),[36],-0.315
same,glycan array binding signal (z-score),[37],-0.849
same,glycan array binding signal (z-score),[38],-0.268

# Reference: the supplement of paper PMC8728848
